Results as given in publication PMC6940380.
Results are given in words; binding and its absence hold for the method and conditions named. In cells and extracts the contact can be indirect. Some binding calls cover weakened binding; strength is not graded here. Tags and fused reporters may be left off the sequences shown.

Biological target: T1, Suppressor of fused homolog (SUFU) (human (endogenous in HEK-293)) (UniProt Q9UMX1)
T1 sequence: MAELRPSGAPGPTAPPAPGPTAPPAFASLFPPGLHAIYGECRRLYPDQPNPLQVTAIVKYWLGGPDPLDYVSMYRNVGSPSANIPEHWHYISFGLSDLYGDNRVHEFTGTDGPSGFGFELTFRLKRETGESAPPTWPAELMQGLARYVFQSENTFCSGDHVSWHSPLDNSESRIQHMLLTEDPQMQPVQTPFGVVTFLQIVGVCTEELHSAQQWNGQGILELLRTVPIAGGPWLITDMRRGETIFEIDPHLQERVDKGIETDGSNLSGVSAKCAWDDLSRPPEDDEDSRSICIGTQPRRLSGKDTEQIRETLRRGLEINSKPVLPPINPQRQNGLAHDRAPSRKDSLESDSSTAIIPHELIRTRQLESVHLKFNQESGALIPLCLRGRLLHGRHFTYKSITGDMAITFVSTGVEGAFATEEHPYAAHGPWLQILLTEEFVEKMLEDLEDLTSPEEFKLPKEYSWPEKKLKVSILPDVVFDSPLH
Experiment: co-IP; SUFU antibody (C81H7) and Protein G Dynabeads on 500 ug lysate of HEK-293 cells stably expressing FLAG constructs, cells treated with MG-132 10 uM for 6 h; IP buffer 1% NP-40, 50 mM Tris-HCl pH 8.0, 150 mM NaCl; 4 C overnight; blot with anti-FLAG M2 and SUFU antibodies

wild-type GLI2 (GLI Family Zinc Finger 2), N-terminal FLAG tag (from UniProt P10070-5 1-1586)
binding: binds
